Data on four compounds can be found in PubChem BioAssay AID272 (DTP/NCI, 2004).

The list does not hold the whole screen: it gathers tests that were run many times, whatever their T/C, doses with no T/C, and many T/C values between a quarter and a half above the control. Other doses and runs of a compound stand elsewhere. T/C: endpoint of the treated group in % of that of the vehicle group. Some doses have a count of surviving animals in place of a T/C: the source holds a T/C of zero for them, seemingly a mark for toxic or unscored doses. Some survivor counts are full or nearly so, which does not show that the dose was tolerated: the source hardly ever lists a survival T/C far under the control, and the zero likely stands for such cases as well. Counts of survivors are from the toxicity check (mostly the fifth day) where no day follows; animals may have died later. Schedules are NCI's codes, taken here to give the interval after Q, in days (D) or hours (H), and the number of doses after X. Some entries were tested several times; the results are listed from low to high. For survival time, the PubChem record calls one and a half times the control and up active, and a quarter to a half above the control has no call in these data; cut-offs in other NCI protocols can differ. Some T/C values carry the count of animals alive at the toxicity check (mostly the fifth day); without a count, all were alive then.

This assay deals with Lewis lung carcinoma i.m., BDF1 mice, T/C %. The assay is described as follows: NCI In Vivo Anticancer Drug Screen. Data for tumor model Lewis Lung Carcinoma (intramuscular) in B6D2F1 (BDF1) mice. A digest of the protocol: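 Tumour-bearing mice were dosed with compound, and either their survival or their tumour size was measured. Results were expressed relative to vehicle-treated controls as T/C.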

[1] abbreviates: T/C endpoint: median survival time, dose: 400.0 mg/kg/injection, schedule: Q04DX003 (ip), vehicle: Klucel (hydroxypropylcellulose) (HPC), higher T/C = longer survival.

Take `CC(CN1CC(=O)NC(=O)C1)N1CC(=O)NC(=O)C1` (stereo not given): the survivor count reads like this: (T/C endpoint: mean tumor weight, dose: 50.0 mg/kg/injection, schedule: Q01DX017 (ip), vehicle: Klucel (hydroxypropylcellulose) (HPC), higher T/C = larger tumour) 4 of 8; (T/C endpoint: mean tumor weight, dose: 100.0 mg/kg/injection, schedule: Q01DX009 (ip), vehicle: Klucel (hydroxypropylcellulose) (HPC), higher T/C = larger tumour) 2 of 8; (T/C endpoint: mean tumor weight, dose: 100.0 mg/kg/injection, schedule: Q01DX011 (ip), vehicle: steroid suspending solution, higher T/C = larger tumour) 2 of 8; (T/C endpoint: mean tumor weight, dose: 100.0 mg/kg/injection, schedule: Q01DX017 (ip), vehicle: Klucel (hydroxypropylcellulose) (HPC), higher T/C = larger tumour) 2 of 8; (T/C endpoint: mean tumor weight, dose: 400.0 mg/kg/injection, schedule: Q04DX003 (ip), vehicle: Klucel (hydroxypropylcellulose) (HPC), higher T/C = larger tumour) 2 of 5; (T/C endpoint: median survival time, dose: 25.0 mg/kg/injection, schedule: Q01DX011 (ip), vehicle: steroid suspending solution, higher T/C = longer survival) 6 of 8. Besides, the survivor count is 8 of 8 (T/C endpoint: median survival time, dose: 25.0 mg/kg/injection, schedule: Q01DX017 (ip), vehicle: Klucel (hydroxypropylcellulose) (HPC), higher T/C = longer survival); 10 of 10 (T/C endpoint: median survival time, dose: 30.0 mg/kg/injection, schedule: Q01DX011 (ip), vehicle: carboxymethylcellulose (CMC), higher T/C = longer survival); 7 of 8 (T/C endpoint: median survival time, dose: 50.0 mg/kg/injection, schedule: Q01DX011 (ip), vehicle: steroid suspending solution, higher T/C = longer survival); 4 of 8 (T/C endpoint: median survival time, dose: 50.0 mg/kg/injection, schedule: Q01DX017 (ip), vehicle: Klucel (hydroxypropylcellulose) (HPC), higher T/C = longer survival); 5 of 10 and 9 of 10 (T/C endpoint: median survival time, dose: 60.0 mg/kg/injection, schedule: Q01DX011 (ip), vehicle: carboxymethylcellulose (CMC), higher T/C = longer survival); 2 of 8 (T/C endpoint: median survival time, dose: 100.0 mg/kg/injection, schedule: Q01DX009 (ip), vehicle: Klucel (hydroxypropylcellulose) (HPC), higher T/C = longer survival). The survivor count (T/C endpoint: median survival time, dose: 100.0 mg/kg/injection, schedule: Q01DX011 (ip), vehicle: Klucel (hydroxypropylcellulose) (HPC), higher T/C = longer survival) is on record as 0 of 8; the survivor count (T/C endpoint: median survival time, dose: 100.0 mg/kg/injection, schedule: Q01DX011 (ip), vehicle: steroid suspending solution, higher T/C = longer survival) is 1 of 8 and 2 of 8; the survivor count (T/C endpoint: median survival time, dose: 100.0 mg/kg/injection, schedule: Q01DX017 (ip), vehicle: Klucel (hydroxypropylcellulose) (HPC), higher T/C = longer survival) is recorded as 2 of 8; the survivor count (T/C endpoint: median survival time, dose: 120.0 mg/kg/injection, schedule: Q01DX011 (ip), vehicle: carboxymethylcellulose (CMC), higher T/C = longer survival) is 1 of 10 and 6 of 10; the survivor count (T/C endpoint: median survival time, dose: 240.0 mg/kg/injection, schedule: Q01DX011 (ip), vehicle: carboxymethylcellulose (CMC), higher T/C = longer survival) was 0 of 10 and 2 of 10; the survivor count (T/C endpoint: median survival time, dose: 400.0 mg/kg/injection, schedule: Q01DX001 (ip), vehicle: steroid suspending solution, higher T/C = longer survival) is on record as 7 of 8. Moreover, the survivor count is listed as 5 of 8 under setting [1]; 7 of 8 (T/C endpoint: median survival time, dose: 400.0 mg/kg/injection, schedule: Q04DX005 (ip), vehicle: Klucel (hydroxypropylcellulose) (HPC), higher T/C = longer survival); 0 of 8 (T/C endpoint: median survival time, dose: 800.0 mg/kg/injection, schedule: Q04DX003 (ip), vehicle: Klucel (hydroxypropylcellulose) (HPC), higher T/C = longer survival). For the same compound, the T/C runs as follows: (T/C endpoint: median survival time, dose: 12.5 mg/kg/injection, schedule: Q01DX011 (ip), vehicle: steroid suspending solution, evaluated on day 39, higher T/C = longer survival) 140 % of control [7 of 8 alive]; (T/C endpoint: median survival time, dose: 12.5 mg/kg/injection, schedule: Q01DX011 (ip), vehicle: steroid suspending solution, evaluated on day 45, higher T/C = longer survival) 127 % of control [7 of 8 alive]; (T/C endpoint: median survival time, dose: 25.0 mg/kg/injection, schedule: Q01DX011 (ip), vehicle: steroid suspending solution, evaluated on day 39, higher T/C = longer survival) 142 % of control; (T/C endpoint: median survival time, dose: 25.0 mg/kg/injection, schedule: Q01DX011 (ip), vehicle: steroid suspending solution, evaluated on day 57, higher T/C = longer survival) 101 and 129 % of control; (T/C endpoint: median survival time, dose: 50.0 mg/kg/injection, schedule: Q01DX011 (ip), vehicle: steroid suspending solution, evaluated on day 39, higher T/C = longer survival) 135 % of control; (T/C endpoint: median survival time, dose: 50.0 mg/kg/injection, schedule: Q01DX011 (ip), vehicle: steroid suspending solution, evaluated on day 45, higher T/C = longer survival) 127 % of control [6 of 8 alive]. In addition, the T/C is, setting by setting: (T/C endpoint: median survival time, dose: 50.0 mg/kg/injection, schedule: Q01DX011 (ip), vehicle: steroid suspending solution, evaluated on day 57, higher T/C = longer survival) 157 % of control; (T/C endpoint: median survival time, dose: 50.0 mg/kg/injection, schedule: Q04DX004 (ip), vehicle: Klucel (hydroxypropylcellulose) (HPC), evaluated on day 10, higher T/C = longer survival) 110 % of control; (T/C endpoint: median survival time, dose: 50.0 mg/kg/injection, schedule: Q04DX004 (ip), vehicle: Klucel (hydroxypropylcellulose) (HPC), evaluated on day 13, higher T/C = longer survival) 100 % of control; (T/C endpoint: median survival time, dose: 50.0 mg/kg/injection, schedule: Q04DX004 (ip), vehicle: Klucel (hydroxypropylcellulose) (HPC), evaluated on day 60, higher T/C = longer survival) 100 % of control [9 of 10 alive]; (T/C endpoint: median survival time, dose: 50.0 mg/kg/injection, schedule: Q04DX004 (ip), vehicle: Klucel (hydroxypropylcellulose) (HPC), evaluated on day 62, higher T/C = longer survival) 110 % of control; (T/C endpoint: median survival time, dose: 100.0 mg/kg/injection, schedule: Q04DX004 (ip), vehicle: Klucel (hydroxypropylcellulose) (HPC), evaluated on day 10, higher T/C = longer survival) 128 % of control. Further, the T/C is, setting by setting: (T/C endpoint: median survival time, dose: 100.0 mg/kg/injection, schedule: Q04DX004 (ip), vehicle: Klucel (hydroxypropylcellulose) (HPC), evaluated on day 13, higher T/C = longer survival) 109 % of control; (T/C endpoint: median survival time, dose: 100.0 mg/kg/injection, schedule: Q04DX004 (ip), vehicle: Klucel (hydroxypropylcellulose) (HPC), evaluated on day 60, higher T/C = longer survival) 109 % of control; (T/C endpoint: median survival time, dose: 100.0 mg/kg/injection, schedule: Q04DX004 (ip), vehicle: Klucel (hydroxypropylcellulose) (HPC), evaluated on day 62, higher T/C = longer survival) 128 % of control; (T/C endpoint: median survival time, dose: 200.0 mg/kg/injection, schedule: Q04DX004 (ip), vehicle: Klucel (hydroxypropylcellulose) (HPC), evaluated on day 10, higher T/C = longer survival) 126 % of control; (T/C endpoint: median survival time, dose: 200.0 mg/kg/injection, schedule: Q04DX004 (ip), vehicle: Klucel (hydroxypropylcellulose) (HPC), evaluated on day 13, higher T/C = longer survival) 97 % of control; (T/C endpoint: median survival time, dose: 200.0 mg/kg/injection, schedule: Q04DX004 (ip), vehicle: Klucel (hydroxypropylcellulose) (HPC), evaluated on day 60, higher T/C = longer survival) 97 % of control. In addition, the T/C (T/C endpoint: median survival time, dose: 200.0 mg/kg/injection, schedule: Q04DX004 (ip), vehicle: Klucel (hydroxypropylcellulose) (HPC), evaluated on day 62, higher T/C = longer survival) was 126 % of control; the T/C under setting [1] was 147 % of control; the T/C (T/C endpoint: median survival time, dose: 400.0 mg/kg/injection, schedule: Q04DX004 (ip), vehicle: Klucel (hydroxypropylcellulose) (HPC), evaluated on day 10, higher T/C = longer survival) is 136 % of control; the T/C (T/C endpoint: median survival time, dose: 400.0 mg/kg/injection, schedule: Q04DX004 (ip), vehicle: Klucel (hydroxypropylcellulose) (HPC), evaluated on day 13, higher T/C = longer survival) was 100 % of control; the T/C (T/C endpoint: median survival time, dose: 400.0 mg/kg/injection, schedule: Q04DX004 (ip), vehicle: Klucel (hydroxypropylcellulose) (HPC), evaluated on day 60, higher T/C = longer survival) was 100 % of control [8 of 10 alive]; the T/C (T/C endpoint: median survival time, dose: 400.0 mg/kg/injection, schedule: Q04DX004 (ip), vehicle: Klucel (hydroxypropylcellulose) (HPC), evaluated on day 62, higher T/C = longer survival) was 136 % of control [9 of 10 alive].

For the compound `Oc1c(Cl)cc(Cl)c2cccnc12`, the survivor count runs as follows: (T/C endpoint: mean tumor weight, dose: 25.0 mg/kg/injection, schedule: Q01DX011 (ip), vehicle: saline with Tween-80, higher T/C = larger tumour) 5 of 8; (T/C endpoint: mean tumor weight, dose: 50.0 mg/kg/injection, schedule: Q01DX011 (ip), vehicle: saline with Tween-80, higher T/C = larger tumour) 4 of 8; (T/C endpoint: median survival time, dose: 25.0 mg/kg/injection, schedule: Q01DX011 (ip), vehicle: saline with Tween-80, higher T/C = longer survival) 5 of 8; (T/C endpoint: median survival time, dose: 50.0 mg/kg/injection, schedule: Q01DX011 (ip), vehicle: saline with Tween-80, higher T/C = longer survival) 4 of 8; (T/C endpoint: median survival time, dose: 100.0 mg/kg/injection, schedule: Q01DX011 (ip), vehicle: saline with Tween-80, higher T/C = longer survival) 0 of 8. For the same compound, the T/C (T/C endpoint: median survival time, dose: 12.5 mg/kg/injection, schedule: Q01DX011 (ip), vehicle: saline with Tween-80, higher T/C = longer survival) is 127 % of control [6 of 8 alive].

Take `CCCCCCCCCCCCCCCCCC[n+]1cccc(C(=O)N2CCOCC2)c1`: the survivor count is, setting by setting: (T/C endpoint: mean tumor weight (est.), dose: 32.0 mg/kg/injection, schedule: Q01DX011 (ip), vehicle: saline, higher T/C = larger tumour) 3 of 8; (T/C endpoint: median survival time, dose: 32.0 mg/kg/injection, schedule: Q01DX011 (ip), vehicle: saline, higher T/C = longer survival) 3 of 8.

Turning to `O=[N+]([O-])c1ccc(N/N=C/CC(O)CO)c([N+](=O)[O-])c1` (stereo not given), the survivor count is 6 of 8 (T/C endpoint: median survival time, dose: 200.0 mg/kg/injection, schedule: Q01DX011 (ip), vehicle: saline with Tween-80, higher T/C = longer survival) and 1 of 8 (T/C endpoint: median survival time, dose: 400.0 mg/kg/injection, schedule: Q01DX011 (ip), vehicle: saline with Tween-80, higher T/C = longer survival).
